PubChem BioAssay AID1224828, NIAID – 2016
Purpose: 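Knock-downs that increase or decrease LPS-induced p65 nuclear translocation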 (primary screen). Cell system: mouse RAW264.7 G9 macrophage reporter cells (GFP-p65, Tnf promoter-mCherry). Reagent: siRNA pool against mouse genes, 100 nM. Timing: 2 days siRNA transfection, then 40 min LPS before fixation. Conditions: LPS (Salmonella minnesota R595) at 10 ng/ml. Detection: 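Imaged p65 nuclear translocation ratio, normalised to the plate median, converted to robust z-scores and averaged across two replicates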. Reading the numbers: p65 translocation robust z-score: higher = more nuclear NF-kappaB p65 after LPS than the plate median; nuclear/cytoplasmic p65 ratio: higher = more nuclear NF-kappaB p65. Active means: 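Active if robust z is above 3.3 (negative regulators) or below -1.56, the Tlr4 control median (positive regulators); activity score 50 or more; control wells not called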. Meaning of the calls: active = hit (p65 shift raised or lowered); inactive = no clear change.
In all, the deposit lists about 17,000 reagents; this is an unselected part. 762 of all reagents (4.5%) were called active. 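Active calls include both raised and lowered p65 entry, mostly lowered; wells with fewer than 50 cells lack a z-score.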 Raw values are not corrected between plates. The numbers tell different reagents against one gene apart.

gene	pool no.	p65 translocation robust z-score	nuclear/cytoplasmic p65 ratio, rep 1	nuclear/cytoplasmic p65 ratio, rep 2	low cell count flag	outcome
Duoxa2 (dual oxidase maturation factor 2)	1	-0.6	1.34	1.47	enough cells to score	inactive
Nucb2 (nucleobindin 2)	1	-0.31	1.38	1.39	enough cells to score	inactive
Ccdc85b (coiled-coil domain containing 85B)	1	1.37	2.02	1.67	enough cells to score	inactive
Lypd3 (Ly6/Plaur domain containing 3)	1		1.33	1.62	fewer than 50 cells per well; well left out of scoring	inactive
T (brachyury, T-box transcription factor T)	1	-1.88	1.54	1.3	enough cells to score	active
Zmat2 (zinc finger, matrin type 2)	1		1.26	1.43	fewer than 50 cells per well; well left out of scoring	inactive
Dpy30 (dpy-30, histone methyltransferase complex regulatory subunit)	1		1.23	1.38	fewer than 50 cells per well; well left out of scoring	inactive
Hoga1 (4-hydroxy-2-oxoglutarate aldolase 1)	1	0.33	1.55	1.71	enough cells to score	inactive
Or8c20 (olfactory receptor family 8 subfamily C member 20)	1	1.21	1.51	1.49	enough cells to score	inactive
Gmip (Gem-interacting protein)	1	-0.76	1.59	1.45	enough cells to score	inactive
Zbtb1 (zinc finger and BTB domain containing 1)	1	1.58	1.66	1.4	enough cells to score	inactive
Smarca1 (SNF2 related chromatin remodeling ATPase 1)	1	-0.15	1.44	1.63	enough cells to score	inactive
Or1e1 (olfactory receptor family 1 subfamily E member 1)	1	-0.12	1.51	1.54	enough cells to score	inactive
Son (Son DNA binding protein)	1	-3.65	1.14	0.919	enough cells to score	active
Cd79a (CD79A antigen (immunoglobulin-associated alpha))	1	0.07	1.56	1.39	enough cells to score	inactive
Wnt7a (WNT family member 7A)	1	0.44	1.65	1.49	enough cells to score	inactive
Hcst (hematopoietic cell signal transducer)	1	-2.96	0.907	1.13	enough cells to score	active
Il13ra2 (interleukin 13 receptor, alpha 2)	1	0.97	1.48	1.58	enough cells to score	inactive
Rrp7a (ribosomal RNA processing 7 homolog A)	1	-0.21	1.53	1.4	enough cells to score	inactive
Hps3 (HPS3, biogenesis of lysosomal organelles complex 2 subunit 1)	1	0.91	1.5	1.54	enough cells to score	inactive
Cnga2 (cyclic nucleotide gated channel alpha 2)	1	0.5	1.6	1.94	enough cells to score	inactive
Zgpat (zinc finger, CCCH-type with G patch domain)	1	0.28	1.63	1.87	enough cells to score	inactive
Abcd3 (ATP-binding cassette, sub-family D member 3)	1	0.82	1.85	1.62	enough cells to score	inactive
Alox8 (arachidonate 8-lipoxygenase)	1	0.45	1.63	1.75	enough cells to score	inactive
Ip6k1 (inositol hexaphosphate kinase 1)	1	-1.52	1.57	1.18	enough cells to score	inactive
Slc14a1	1	-0.08	1.5	1.61	enough cells to score	inactive
Or1o2 (olfactory receptor family 1 subfamily O member 2)	1	0.95	1.53	1.38	enough cells to score	inactive

Active calls (from the list above):
gene	pool no.	p65 translocation robust z-score	nuclear/cytoplasmic p65 ratio, rep 1	nuclear/cytoplasmic p65 ratio, rep 2	low cell count flag	outcome
T (brachyury, T-box transcription factor T)	1	-1.88	1.54	1.3	enough cells to score	active
Son (Son DNA binding protein)	1	-3.65	1.14	0.919	enough cells to score	active
Hcst (hematopoietic cell signal transducer)	1	-2.96	0.907	1.13	enough cells to score	active

More reagents follow:
gene	pool no.	p65 translocation robust z-score	nuclear/cytoplasmic p65 ratio, rep 1	nuclear/cytoplasmic p65 ratio, rep 2	low cell count flag	outcome
Atp6ap2 (ATPase, H+ transporting, lysosomal accessory protein 2)	1	-0.59	1.45	1.64	enough cells to score	inactive
Hspa12b (heat shock protein family A (Hsp70) member 12B)	1	-0.4	1.52	1.35	enough cells to score	inactive
Neu3 (neuraminidase 3)	1	-1.51	1.51	1.39	enough cells to score	inactive
Gopc (golgi associated PDZ and coiled-coil motif containing)	1	-0.37	1.39	1.32	enough cells to score	inactive
Ube2q2 (ubiquitin-conjugating enzyme E2Q family member 2)	1		1.39	1.05	fewer than 50 cells per well; well left out of scoring	inactive
Txnl4a (thioredoxin-like 4A)	1	-0.49	1.26	1.23	enough cells to score	inactive
Txnl4a (thioredoxin-like 4A)	2	-3.15	1.09	1.12	enough cells to score	active
Tmem39a (transmembrane protein 39a)	1	0.65	1.48	1.56	enough cells to score	inactive
Pbsn (probasin)	1	1.9	1.78	1.39	enough cells to score	inactive
Dcun1d3 (defective in cullin neddylation 1 domain containing 3)	1	-1.35	1.41	1.62	enough cells to score	inactive
Esyt3 (extended synaptotagmin-like protein 3)	1	0.07	1.54	1.6	enough cells to score	inactive
4930470P17Rik (RIKEN cDNA 4930470P17 gene)	1		1.19	1.32	fewer than 50 cells per well; well left out of scoring	inactive
Tbkbp1 (TBK1 binding protein 1)	1		1.26	1.63	fewer than 50 cells per well; well left out of scoring	inactive
Gtpbp8 (GTP-binding protein 8 (putative))	1	-0.17	1.48	1.51	enough cells to score	inactive
Tmem109 (transmembrane protein 109)	1	0.75	1.49	1.69	enough cells to score	inactive
Ubxn7 (UBX domain protein 7)	1		1.34	1.17	fewer than 50 cells per well; well left out of scoring	inactive
Abcg2	1	-0.36	1.57	1.55	enough cells to score	inactive
Hcfc1r1 (host cell factor C1 regulator 1 (XPO1-dependent))	1	0.38	1.78	1.53	enough cells to score	inactive
Ttc39c (tetratricopeptide repeat domain 39C)	1		1.36	1.26	fewer than 50 cells per well; well left out of scoring	inactive
Cpt1b (carnitine palmitoyltransferase 1b, muscle)	1	-2.63	1.22	1.31	enough cells to score	active
H1f1 (H1.1 linker histone, cluster member)	1	0.7	1.69	1.66	enough cells to score	inactive
Or7e168 (olfactory receptor family 7 subfamily E member 168)	1	3.14	1.84	2.16	enough cells to score	inactive
Smpd4 (sphingomyelin phosphodiesterase 4)	1	0.93	1.43	1.33	enough cells to score	inactive
Or7g33 (olfactory receptor family 7 subfamily G member 33)	1	-0.76	1.34	1.25	enough cells to score	inactive
Ifnb1 (interferon beta 1, fibroblast)	1	-1.4	1.16	1.29	enough cells to score	inactive
Tbc1d13 (TBC1 domain family, member 13)	1		1.43	1.06	fewer than 50 cells per well; well left out of scoring	inactive
Cd59a (CD59a antigen)	1	-0.18	1.26	1.36	enough cells to score	inactive
5330430C04Rik (RIKEN cDNA 5330430C04 gene)	1	-0.9	1.11	1.49	enough cells to score	inactive
Itga2b (integrin alpha 2b)	1	-0.73	1.29	1.36	enough cells to score	inactive
Pcyt1b (phosphate cytidylyltransferase 1, choline, beta isoform)	1		1.33	1.28	fewer than 50 cells per well; well left out of scoring	inactive
Or9g4b (olfactory receptor family 9 subfamily G member 4B)	1	-0.27	1.67	1.49	enough cells to score	inactive
Cox7b2 (cytochrome c oxidase subunit 7B2)	1	0.49	1.35	1.33	enough cells to score	inactive
